These are yes or no findings as the source states them, for the method shown. In cells and extracts the contact can be indirect. A result given as binding can be weak or reduced; the word gives no strength. Tags and fused reporters may be left off the sequences shown.
Target: T1, mouse Kv4.2 channel with GFP fused to the C-terminus (Kv4.2g) (mouse) (UniProt Q9Z0V2)
T1 sequence: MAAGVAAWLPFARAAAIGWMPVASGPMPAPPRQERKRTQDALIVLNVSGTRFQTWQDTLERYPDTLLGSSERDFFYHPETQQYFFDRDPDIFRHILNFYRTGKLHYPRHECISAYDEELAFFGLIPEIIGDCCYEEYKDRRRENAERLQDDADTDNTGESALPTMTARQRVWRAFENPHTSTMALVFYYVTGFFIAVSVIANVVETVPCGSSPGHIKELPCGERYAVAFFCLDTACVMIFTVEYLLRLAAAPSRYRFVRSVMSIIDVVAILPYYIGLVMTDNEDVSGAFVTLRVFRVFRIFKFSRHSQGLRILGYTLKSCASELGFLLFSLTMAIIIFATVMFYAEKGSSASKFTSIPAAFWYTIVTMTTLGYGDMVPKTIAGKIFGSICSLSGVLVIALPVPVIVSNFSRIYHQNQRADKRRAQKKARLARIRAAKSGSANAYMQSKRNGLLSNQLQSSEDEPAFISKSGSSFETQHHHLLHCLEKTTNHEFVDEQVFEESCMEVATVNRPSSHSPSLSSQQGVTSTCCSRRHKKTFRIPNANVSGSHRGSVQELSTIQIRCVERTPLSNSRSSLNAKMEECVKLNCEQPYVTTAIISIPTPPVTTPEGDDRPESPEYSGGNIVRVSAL
Assay: co-IP; preliminary immunoprecipitation from HEK cells co-transfected with Kv4.2g, HA-KChIP2a and HA-DPP10c (Supplementary Figure 1D); antibody used for the IP not given

For “hemagglutinin (HA)-tagged KChIP2a (HA-KChIP2a)”, the binding was “binds”.
